PubChem BioAssay AID504793 – Drosophila RNAi Screening Center – 2011

Purpose: 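Genes required for cells to halt at G2/M after double-strand DNA breaks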 (primary screen)
Cells: Drosophila S2R+ cells
Reagent: long dsRNA against Drosophila genes, about 0.25 µg dsRNA per well
Duration: 4 days of dsRNA, then 4 hours of drug before read-out
Challenge: doxorubicin 0.5 µM for 4 hours to cause double-strand breaks, in cells also given a low, harmless dose of dsRNA against nbs to sensitise the assay
Read-out: 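Mitotic index as the number of phospho-histone H3-positive cells in each well following doxorubicin, given as raw counts without normalisation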
Reading the numbers: mitotic cells: higher = more cells in mitosis, weaker G2 arrest
Call rule: 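Genes are called active only when high mitotic counts were reproduced with independent dsRNAs and mitosis was checked for delay without damage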
Meaning of the calls: active = confirmed in follow-up tests; inactive = not confirmed
The screen tested about 23,000 reagents; below is a random part of those that have a named target and a result. Of all reagents, 62 (0.27%) are marked active. 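Calls come from follow-up tests whose scores are not deposited, so confirmed genes may have low counts here; counts are not normalised per plate.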 Raw values are not corrected between plates. A plus sign joins genes that one reagent is predicted to hit.

predicted target | PubChem SID | mitotic cells, replicate 1 | mitotic cells, replicate 2 | Call
mam (mastermind) | SID104185260 | 5 | – | inactive
mam (mastermind) | SID104202328 | 17 | – | inactive
mam (mastermind) | SID104204312 | 15 | – | inactive
CG4563 | SID104184266 | 5 | – | inactive
CG15080 | SID104186303 | 13 | – | inactive
CG15080 | SID104207918 | 3 | – | inactive
ENGase (Endo-beta-N-acetylglucosaminidase) | SID104199744 | 16 | – | inactive
ENGase (Endo-beta-N-acetylglucosaminidase) | SID104199745 | 7 | – | inactive
Polr3F (RNA polymerase III subunit F) | SID104195577 | 6 | – | inactive
CG13039 | SID104189712 | – | – | inactive
CG11777 | SID104185873 | 3 | – | inactive
CG11777 | SID104205294 | 9 | – | inactive
CG30053 | SID104187052 | 5 | – | inactive
Ir60e (Ionotropic receptor 60e) | SID104184019 | 10 | – | inactive
CG34423 + Mthfs | SID104183880 | 7 | – | inactive
CG32986 | SID104182301 | 5 | – | inactive
CG6497 | SID104190446 | 4 | – | inactive
CG6497 | SID104201205 | 10 | – | inactive
CG6497 | SID104204797 | 6 | – | inactive
SCCRO4 (Squamous cell carcinoma-related oncogene 4) | SID104190463 | 7 | – | inactive
CG14324 | SID104194595 | 12 | – | inactive
CG14324 | SID104203123 | 5 | – | inactive
ovo | SID104197842 | 9 | – | inactive
ovo | SID104204345 | 4 | – | inactive
CG9067 | SID104187120 | 8 | – | inactive
RYBP (Ring and YY1 Binding Protein) | SID104183909 | 11 | – | inactive
RYBP (Ring and YY1 Binding Protein) | SID104206008 | 2 | – | inactive
Letm1 | SID104184268 | 5 | – | inactive
Crtp (Caldesmon-related protein) | SID104184396 | 5 | – | inactive
Crtp (Caldesmon-related protein) | SID104204967 | 5 | – | inactive
CG15535 | SID104194863 | 16 | – | inactive
CG1092 | SID104191943 | 3 | – | inactive
CG1092 | SID104203219 | 2 | – | inactive
Polr1E (RNA polymerase I subunit E) | SID104194298 | 11 | – | inactive
Polr1E (RNA polymerase I subunit E) | SID104195150 | 6 | – | inactive
CG31327 | SID104192811 | 1 | – | inactive
Ser6 (Serine protease 6) | SID104200366 | 5 | – | inactive
Ser6 (Serine protease 6) | SID104206172 | 5 | – | inactive
ND-B14.7 (NADH dehydrogenase (ubiquinone) B14.7 subunit) | SID104184336 | 12 | – | inactive
nht (no hitter) | SID104181768 | 11 | 14 | inactive
dpr6 (defective proboscis extension response 6) | SID104188797 | 8 | – | inactive
dpr6 (defective proboscis extension response 6) | SID104189954 | 2 | – | inactive
dpr6 (defective proboscis extension response 6) | SID104189955 | 16 | – | inactive
CG18585 | SID104182470 | 3 | – | inactive
mtDNA-helicase (mitochondrial DNA helicase) | SID104182704 | 3 | – | inactive
CG14384 | SID104194634 | 7 | – | inactive
KaiR1D (Kainate-type ionotropic glutamate receptor subunit 1D) | SID104195308 | 9 | – | inactive
CG3309 | SID104198093 | 5 | – | inactive
CG3309 | SID104204741 | 10 | – | inactive
IFT46 (Intraflagellar transport 46) | SID104182254 | 2 | – | inactive
tbrd-2 | SID104186812 | 5 | – | inactive
He + NimB5 | SID104202235 | 4 | – | inactive
CG13681 (retired record) | SID104188698 | 9 | – | inactive
CG13681 (retired record) | SID104188699 | 8 | – | inactive
CG13681 (retired record) | SID104189830 | 6 | – | inactive
CG13681 (retired record) | SID104189831 | 6 | – | inactive
CG13681 (retired record) | SID104190719 | 3 | – | inactive
CG13681 (retired record) | SID104190721 | 7 | – | inactive
CG13681 (retired record) | SID104206468 | 9 | – | inactive

13 consecutive entries already listed, for reference:
predicted target | PubChem SID | mitotic cells, replicate 1 | mitotic cells, replicate 2 | Call
CG1092 | SID104191943 | 3 | – | inactive
CG1092 | SID104203219 | 2 | – | inactive
Polr1E (RNA polymerase I subunit E) | SID104194298 | 11 | – | inactive
Polr1E (RNA polymerase I subunit E) | SID104195150 | 6 | – | inactive
CG31327 | SID104192811 | 1 | – | inactive
Ser6 (Serine protease 6) | SID104200366 | 5 | – | inactive
Ser6 (Serine protease 6) | SID104206172 | 5 | – | inactive
ND-B14.7 (NADH dehydrogenase (ubiquinone) B14.7 subunit) | SID104184336 | 12 | – | inactive
nht (no hitter) | SID104181768 | 11 | 14 | inactive
dpr6 (defective proboscis extension response 6) | SID104188797 | 8 | – | inactive
dpr6 (defective proboscis extension response 6) | SID104189954 | 2 | – | inactive
dpr6 (defective proboscis extension response 6) | SID104189955 | 16 | – | inactive
CG18585 | SID104182470 | 3 | – | inactive

Next results:
predicted target | PubChem SID | mitotic cells, replicate 1 | mitotic cells, replicate 2 | Call
Glo1 (Glyoxalase 1) | SID104186449 | 6 | – | inactive
CG42560 + CG42559 | SID104201509 | 8 | – | inactive
CG17167 | SID104200694 | 3 | – | inactive
CG17167 | SID104200695 | 7 | – | inactive
CheA87a (Chemosensory protein A 87a) | SID104194631 | 10 | – | inactive
GstE3 (Glutathione S transferase E3) | SID104186465 | 5 | – | inactive
CG13711 | SID104188112 | 6 | – | inactive
CG13711 | SID104203031 | 7 | – | inactive
CG8907 | SID104196245 | 7 | – | inactive
CG8907 | SID104206044 | 4 | – | inactive
Bhmt (Betaine-homocysteine S-methyltransferase) | SID104181871 | 5 | – | inactive
Bhmt (Betaine-homocysteine S-methyltransferase) | SID104204199 | 5 | – | inactive
CG43901 | SID104199189 | 11 | – | inactive
CG43901 | SID104205575 | 5 | – | inactive
CG33098 | SID104202262 | 17 | – | inactive
l(1)10Bb (lethal (1) 10Bb) | SID104200138 | 8 | – | inactive
alpha-Est4 (alpha-Esterase-4) | SID104192408 | 4 | – | inactive
alpha-Est4 (alpha-Esterase-4) | SID104205824 | 11 | – | inactive
CG13858 (retired record) | SID104194500 | 9 | – | inactive
CG13858 (retired record) | SID104194501 | 12 | – | inactive
CG13858 (retired record) | SID104194502 | 1 | – | inactive
CG13858 (retired record) | SID104194503 | 9 | – | inactive
CarT (Carcinine transporter) | SID104182988 | 4 | – | inactive
CarT (Carcinine transporter) | SID104205614 | 2 | – | inactive
Sulf1 (Sulfated) | SID104196666 | 3 | – | inactive
Sulf1 (Sulfated) | SID104205823 | 9 | – | inactive
Dyrk3 (Dual-specificity tyrosine phosphorylation-regulated kinase 3) | SID104200847 | 9 | – | inactive
dpr19 (defective proboscis extension response 19) | SID104182029 | 6 | – | inactive
CG1503 | SID104200304 | 4 | – | inactive
Vps11 (Vacuolar protein sorting 11) | SID104191701 | 5 | – | inactive
Vps11 (Vacuolar protein sorting 11) | SID104201289 | 9 | – | inactive
Grl36b (Gustatory receptor-like 36b) | SID104181419 | 6 | – | inactive
CG30116 | SID104185727 | 4 | – | inactive
CG30116 | SID104186477 | 8 | – | inactive
CG14647 | SID104192025 | 4 | – | inactive
CG14647 | SID104201949 | 12 | – | inactive
CG15128 | SID104186342 | 8 | – | inactive
Cyp28a5 (Cytochrome P450 28a5) | SID104183089 | 9 | – | inactive
Parp1 (Poly-(ADP-ribose) polymerase 1) | SID104187517 | 7 | – | inactive
Parp1 (Poly-(ADP-ribose) polymerase 1) | SID104187570 | 7 | – | inactive
Parp1 (Poly-(ADP-ribose) polymerase 1) | SID104187572 | 21 | – | inactive
CG13361 | SID104197688 | 18 | – | inactive
CG13361 | SID104208272 | 4 | – | inactive
tld (tolloid) | SID104196876 | 8 | – | inactive
CG32669 | SID104198656 | 8 | – | inactive
l(3)05822 (lethal (3) 05822) | SID104195994 | 5 | – | inactive
l(3)05822 (lethal (3) 05822) | SID104203361 | 6 | – | inactive
CG15125 | SID104186339 | 11 | – | inactive
beat-Ia (beaten path Ia) | SID104183281 | 10 | – | inactive
beat-Ia (beaten path Ia) | SID104204121 | 17 | – | inactive
pico | SID104199222 | 9 | – | inactive
